Experimental data from PubChem BioAssay AID1347075 (National Center for Advancing Translational Sciences (NCATS), 2019).
The campaign covered roughly 400,000 compounds. About 5,500 (1.4%) were called active. The inconclusive results got no clear call from the source; some entries with a clear call stand among them for comparison. The call rests on the fitted dose curve; in most records, active means well fitted cell-killing curve with a large enough effect; inconclusive means small, poorly fitted or top-dose-only effect, or effect the other way; inactive means flat fitted curve, though single readings scatter. A potency beside an inconclusive call is a rough fit, not a confirmed value.

Test: qHTS assay for MDR1-selective chemotherapeutics: Primary screen using the parental adenocarcinoma cell KB-3-1; further: nearly all actives have a fitted effect of over 60% in size
Conditions: KB-3-1 viability, CellTiter-Glo ATP luminescence, 72 h; activity change, negative = cytotoxic: at 46.1 µM (top of the series)
How it was run: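 Luminescent ATP read-out (CellTiter-Glo) measures survival of drug-naive KB-3-1 cells after 72 h compound exposure at 37 °C. Titration series was screened from lowest to highest concentration, with DMSO vehicle plates as background controls.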
On the % scale 0 is the no-effect control and ±100 the full control effect; potency means the concentration at half of the fitted maximal effect.

Structure (SMILES)	Potency	activity change, negative = cytotoxic
CCOC(=O)C1CCN(C(=O)c2c(C)oc3c2C(=O)c2ccccc2C3=O)CC1	inconclusive: 18.4 µM [cytotoxic, single point]	–
O=C(Nc1ccc([N+](=O)[O-])cc1)Nc1ccc(Cl)cc1F	inconclusive: 20.6 µM [cytotoxic, partial curve, poor fit]	–
CCN(c1ccc(OC)cc1)S(=O)(=O)c1ccc(-c2cc(C)no2)s1	inconclusive: 29.1 µM [cytotoxic, single point]	–
O=C(O)c1cnc(-c2ccccc2)nc1Sc1ccc(Cl)cc1Cl	inconclusive: 16.4 µM [cytotoxic, single point]	–
CCOC(=O)Nc1ccc2c(COC(=O)CN(C)S(=O)(=O)c3ccc(C)cc3)cc(=O)oc2c1	inconclusive: 23.1 µM [cytotoxic, single point]	–
CCn1c(=O)c(C(=O)NCCN2CCCCC2)c(O)c2ccccc21	inconclusive: 29.1 µM [cytotoxic, single point]	–
COc1ccc(C2CCCN2C(=S)Nc2cccc(Cl)c2)cc1OC (stereo unspecified)	inconclusive: 18.4 µM [rising, partial curve, poor fit]	–
O=C(c1cc(F)ccc1F)C1CCCN(C(=O)CCc2cnccn2)C1 (stereo unspecified)	–	inconclusive: 11.8%
COc1cccc(CN2CCNC(=O)C2CC(=O)NCCc2ccccn2)c1 (stereo unspecified)	inconclusive: 0.82 µM [rising, full curve, poor fit]	–
O=C(Nc1ccccc1)N1CCN(c2nc3ccccc3s2)CC1	–	inactive: -5.01%
C=CCC[C@@H](Cc1ccc(F)cc1)C(=O)OC[C@@H]1CCCN1C(=O)[C@@H](CC=C)CC(=O)N(CCO)Cc1ccccc1	–	inactive: 0%
Nc1nc(CN2CCN(C(c3ccccc3)c3ccccc3)CC2)nc(Nc2ccccc2)n1	–	inactive: -2.11%
O=[N+]([O-])c1c(Nc2ccccn2)cc(Cl)c2nonc12	inconclusive: 5.8 µM [cytotoxic, full curve]	–
COc1ccc(OCC(O)Cn2c(=N)n(CCN3CCCCC3)c3ccccc32)cc1 (stereo unspecified)	inconclusive: 18.4 µM [cytotoxic, single point]	–
Cn1c(=O)c2ccccc2n(Cc2ccccc2Cl)c1=O	inconclusive: 16.4 µM [cytotoxic, partial curve, poor fit]	–
CC(=O)N(c1ccccc1Cl)S(=O)(=O)c1ccc(Cl)cc1	–	inactive: -3.97%
Cc1ccc(S(=O)(=O)Nc2ccccc2N(C)S(=O)(=O)c2ccc(C)cc2)cc1	inconclusive: 29.1 µM [cytotoxic, single point]	–
Cc1ccccc1CSc1nc2[nH]ncc2c(=O)[nH]1	–	inactive: 0.204%
COc1ccc(NC(=O)N(C)C[C@@H]2OCc3cn(nn3)CCCC(=O)N([C@@H](C)CO)C[C@H]2C)cc1	–	inactive: 7.25%
Cn1c(SCC(=O)Nc2nc(C(C)(C)C)cs2)nnc1C1CC1	–	inactive: 2.78%
CC(=O)/C=C(\C)Nc1ccc(-c2cnc(-c3ccccc3)o2)cc1	inconclusive: 16.4 µM [cytotoxic, single point]	–
COc1ccccc1C(=O)n1nc(-c2ccccc2)nc1NCc1ccc(Cl)cc1	inconclusive: 29.1 µM [cytotoxic, single point]	–

Structure (SMILES)	Potency	activity change, negative = cytotoxic
C[C@@H]1CN([C@H](C)CO)C(=O)c2cc(Br)cnc2O[C@@H]1CN(C)Cc1ccc(F)cc1	–	inactive: 8.47%
Cc1ccc(N(CCC#N)C(=O)CCl)cc1C	inconclusive: 29.1 µM [cytotoxic, single point]	–
CCCn1c(=O)c(C(=O)NCc2ccco2)c(O)c2ccccc21	–	inactive: 0%
O=C(Nc1ccc(SC(F)F)cc1)c1cc(-c2ccncc2)nc2ccccc12	inconclusive: 18.4 µM [cytotoxic, single point]	–
C=CC[C@@H](CC(=O)N(CCO)Cc1ccccc1)C(=O)N[C@H](COC(=O)[C@@H](CC=C)Cc1ccc(F)cc1)Cc1c[nH]c2ccccc12	inconclusive: 29.1 µM [cytotoxic, single point]	–
CC(C)(C)OC(=O)N1CC=C2C(C#N)=C(N)C(C#N)(C#N)[C@H](c3cccnc3)[C@H]2C1	inconclusive: 18.4 µM [rising, single point]	–
Cc1cc(NS(=O)(=O)c2ccc(NC(=O)/C=C/c3ccccc3)cc2)no1	–	inconclusive: 0%
N#Cc1c2c(c(-c3ccccc3Cl)[nH]c1=S)CCCC2	inconclusive: 5.17 µM [cytotoxic, partial curve, poor fit]	–
CC1(C(=O)Nc2ccc3c(c2)OCO3)Cc2c(-c3cccc(C(N)=O)c3)ccnc2O1 (stereo unspecified)	active: 7.31 µM	–
O=C(NCCOc1ccccc1)C1Nc2ccc(C(F)(F)F)cc2C2c3ccccc3CC12 (stereo unspecified)	inconclusive: 25.9 µM [cytotoxic, single point]	–
Cc1ccc(-c2c[n+](CC(=O)c3ccc(Br)cc3)c3n2CCCCC3)cc1	inconclusive: 16.4 µM [cytotoxic, partial curve, poor fit]	–
Cc1ccc2sc(N(CCCN(C)C)C(=O)c3ccc(Br)s3)nc2c1C	inconclusive: 29.1 µM [cytotoxic, single point]	–
CC(C)Nc1nc(Cl)nc(N(C#N)CN2C(=O)c3ccccc3C2=O)n1	inconclusive: 29.1 µM [cytotoxic, single point]	–
CN(CC(=O)Nc1ccccc1Cl)C(=O)c1ccc(N2CCCCCC2)c([N+](=O)[O-])c1	inconclusive: 7.31 µM [cytotoxic, partial curve, poor fit]	–
Cc1nc(CNS(=O)(=O)c2ccc(Oc3ccccc3)cc2)cs1	inconclusive: 29.1 µM [cytotoxic, single point]	–
Cc1ccc(NC(=O)NCCN2CCN(c3ccccc3)CC2)cc1Cl	–	inactive: -0.48%
O=C(Cc1ccccc1)N/N=C/c1cc(Br)cc(Br)c1O	inconclusive: 20.6 µM [cytotoxic, partial curve, poor fit]	–
COC1=C(Nc2ccccc2)C(=O)c2ccccc2C1=O	active: 20.6 µM	–
CC(=O)N(C(C)=O)N1C(=O)C2C3c4ccccc4C(c4ccccc43)C2C1=O (stereo unspecified)	–	inactive: 8.92%
CCOC(=O)c1ccc2ncc(C(=O)OCC)c(Nc3ccc(N4CCOCC4)cc3)c2c1	–	inactive: -27.3%
CCSc1nnc(NC(=O)CSc2nnc(CNC(=O)c3cc(OC)c(OC)c(OC)c3)o2)s1	–	inactive: 21.8%
CCOc1ccc(NC(=O)c2cc3c(C)nc4ccccc4c3o2)cc1	inconclusive: 2.91 µM [cytotoxic, partial curve, poor fit]	–

Structure (SMILES)	Potency	activity change, negative = cytotoxic
Cc1cc(N2CCOCC2)nc2ccc(NC(=O)CCC(=O)N3CCN(c4ccc(F)cc4)CC3)cc12	–	inactive: -13.3%
COc1ccc(N2C(=O)C(C)C(Cc3ccc(C)cc3)C2=O)cc1 (stereo unspecified)	–	inactive: 17.7%
COc1ccc(N2Cc3ccccc3C2=O)cc1	inconclusive: 14.6 µM [cytotoxic, single point]	–
COc1ccc(/C=N/NC(=O)c2cccc([N+](=O)[O-])c2)cc1OS(=O)(=O)c1ccc(C)cc1	inconclusive: 29.1 µM [cytotoxic, single point]	–
COc1ccc(OC)c(S(=O)(=O)N2CCN(c3ncccn3)CC2)c1	inconclusive: 32.6 µM [cytotoxic, single point]	–
N#Cc1ccc(-c2nc3cc(Cl)ccc3c(=O)n2O)cc1	inconclusive: 0.731 µM [cytotoxic, full curve, poor fit]	–
CC(C)(C)OC(=O)NCc1ccc(NC(=O)c2nc[nH]c2C(=O)N[C@@H](Cc2ccccc2)C(=O)OCc2ccccc2)cc1	inconclusive: 29.1 µM [cytotoxic, single point]	–
COc1ccc(Cc2nnc(SCc3ccc([N+](=O)[O-])cc3)o2)cc1	inconclusive: 25.9 µM [cytotoxic, single point]	–
Cc1cccc(NCc2cccc3ccccc23)n1	–	inactive: 1.1%
COc1cc(/C=C/C(=O)C2C(=O)C=C(C)OC2=O)cc(OC)c1O (stereo unspecified)	inconclusive: 29.1 µM [cytotoxic, single point]	–
NC(=O)CC(NC(=O)c1ccccc1)c1ccc(N2CCN(c3ccc(F)cc3)CC2)c([N+](=O)[O-])c1 (stereo unspecified)	inconclusive: 23.1 µM [cytotoxic, single point]	–
CCN1C(=O)/C(=C\c2ccncc2)SC1=Nc1ccc(C)c(C)c1	inconclusive: 20.6 µM [cytotoxic, single point]	–
Cc1ccc(C)c(NC(=S)NCCc2c[nH]c3ccccc23)c1	–	inactive: -26.9%
O=C(NCCCN1CCCCCC1)c1ccc2c(Cl)c3c(nc2c1)CCCC3	inconclusive: 29.1 µM [cytotoxic, single point]	–
CCOc1ccc2[nH]c(=O)c(C(c3nnnn3Cc3ccco3)N3CCC(C)CC3)cc2c1 (stereo unspecified)	–	inactive: 0%
CCCCN(CCCC)S(=O)(=O)c1ccc(NS(=O)(=O)c2ccc(NC(C)=O)cc2)cc1	–	inactive: -0.815%
N#Cc1ccc(/C=C/C(=O)c2cccnc2)cc1	–	inactive: 0.933%
COc1cccc(C(=O)/C(C#N)=N/Nc2cccc(-c3ccnc(C)n3)c2)c1	inconclusive: 29.1 µM [cytotoxic, single point]	–
O=C(NCc1ccccc1Br)c1cccc2c1C(=O)c1ccc(-c3ccc(OC(F)(F)F)cc3)cc1S2(=O)=O	inconclusive: 14.6 µM [cytotoxic, single point]	–
CN(C)CCn1c2c(c(SCC(=O)N3CCc4ccccc43)nc1=O)CCCC2	inconclusive: 23.1 µM [cytotoxic, single point]	–
O=C(NC(=S)Nn1cnc2c(cnn2-c2ccccc2)c1=O)c1ccccc1	inconclusive: 20.6 µM [rising, single point]	–
C/C(=N\NC(=O)c1cc(-c2cccs2)nc2ccccc12)c1ccccn1	inconclusive: 10.3 µM [cytotoxic, partial curve, poor fit]	–

Quoted from the listing (three entries):
Structure (SMILES)	Potency	activity change, negative = cytotoxic
COc1ccc(Cc2nnc(SCc3ccc([N+](=O)[O-])cc3)o2)cc1	inconclusive: 25.9 µM [cytotoxic, single point]	–
Cc1cccc(NCc2cccc3ccccc23)n1	–	inactive: 1.1%
COc1cc(/C=C/C(=O)C2C(=O)C=C(C)OC2=O)cc(OC)c1O (stereo unspecified)	inconclusive: 29.1 µM [cytotoxic, single point]	–
